Measured values published in paper PMC6297355.
No constants are given. Whether binding was seen depends on the method and setting. One block for each substance: values may come before it.

Amino acid sequences for entries named in this document (tags omitted). A change or cut given only in a name is not applied to a line headed by its entry.
UniProt O95817: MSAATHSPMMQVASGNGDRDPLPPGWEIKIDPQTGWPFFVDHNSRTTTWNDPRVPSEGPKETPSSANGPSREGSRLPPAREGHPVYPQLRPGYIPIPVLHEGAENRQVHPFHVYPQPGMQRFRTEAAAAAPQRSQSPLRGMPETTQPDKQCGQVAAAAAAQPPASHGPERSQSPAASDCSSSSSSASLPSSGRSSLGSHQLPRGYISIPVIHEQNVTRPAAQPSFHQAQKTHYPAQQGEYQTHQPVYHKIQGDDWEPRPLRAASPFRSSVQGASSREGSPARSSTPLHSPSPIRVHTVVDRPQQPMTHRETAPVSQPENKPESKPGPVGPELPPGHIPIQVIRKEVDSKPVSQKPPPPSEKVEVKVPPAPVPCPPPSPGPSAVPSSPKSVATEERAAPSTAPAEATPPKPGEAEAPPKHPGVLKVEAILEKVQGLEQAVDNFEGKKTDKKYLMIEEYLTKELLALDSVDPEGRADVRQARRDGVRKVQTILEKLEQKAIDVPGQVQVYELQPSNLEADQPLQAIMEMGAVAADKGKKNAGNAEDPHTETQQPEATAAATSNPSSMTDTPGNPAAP

Key:
Assay in all cases: SEC-MALS; 30 µM BAG3 solutions separated on Shodex 804, in-line DAWN HELEOS and Optilab rEX detectors; both purified
[1] = biological target: BAG3^P209A (recombinant) (human) (UniProt O95817)
[2] = biological target: BAG3^P209D (recombinant) (human) (UniProt O95817)
[3] = biological target: BAG3^P209G (recombinant) (human) (UniProt O95817)
[4] = biological target: BAG3^P209K (recombinant) (human) (UniProt O95817)

binding [1]: no binding
Substance: BAG3^P209A (recombinant) (from UniProt O95817 1-575)

binding [2]: no binding
Substance: BAG3^P209D (recombinant) (from UniProt O95817 1-575)

binding [3]: no binding
Substance: BAG3^P209G (recombinant) (from UniProt O95817 1-575)

binding [4]: no binding
Substance: BAG3^P209K (recombinant) (from UniProt O95817 1-575)
